Data as given in PMC12143136.
Results are given in words; binding and its absence hold for the method and conditions named. Binding seen in cells or lysates may run through a third protein. Some results given as binding are weak or reduced against the parent protein; the word gives no strength. For some of these results: Where a sequence is shown, tags or fusion partners need not be part of it.

Chains of the proteins cited; added tags and fusions are not shown. Residues count along the entry.
UniProt P13612, residues 34-1032: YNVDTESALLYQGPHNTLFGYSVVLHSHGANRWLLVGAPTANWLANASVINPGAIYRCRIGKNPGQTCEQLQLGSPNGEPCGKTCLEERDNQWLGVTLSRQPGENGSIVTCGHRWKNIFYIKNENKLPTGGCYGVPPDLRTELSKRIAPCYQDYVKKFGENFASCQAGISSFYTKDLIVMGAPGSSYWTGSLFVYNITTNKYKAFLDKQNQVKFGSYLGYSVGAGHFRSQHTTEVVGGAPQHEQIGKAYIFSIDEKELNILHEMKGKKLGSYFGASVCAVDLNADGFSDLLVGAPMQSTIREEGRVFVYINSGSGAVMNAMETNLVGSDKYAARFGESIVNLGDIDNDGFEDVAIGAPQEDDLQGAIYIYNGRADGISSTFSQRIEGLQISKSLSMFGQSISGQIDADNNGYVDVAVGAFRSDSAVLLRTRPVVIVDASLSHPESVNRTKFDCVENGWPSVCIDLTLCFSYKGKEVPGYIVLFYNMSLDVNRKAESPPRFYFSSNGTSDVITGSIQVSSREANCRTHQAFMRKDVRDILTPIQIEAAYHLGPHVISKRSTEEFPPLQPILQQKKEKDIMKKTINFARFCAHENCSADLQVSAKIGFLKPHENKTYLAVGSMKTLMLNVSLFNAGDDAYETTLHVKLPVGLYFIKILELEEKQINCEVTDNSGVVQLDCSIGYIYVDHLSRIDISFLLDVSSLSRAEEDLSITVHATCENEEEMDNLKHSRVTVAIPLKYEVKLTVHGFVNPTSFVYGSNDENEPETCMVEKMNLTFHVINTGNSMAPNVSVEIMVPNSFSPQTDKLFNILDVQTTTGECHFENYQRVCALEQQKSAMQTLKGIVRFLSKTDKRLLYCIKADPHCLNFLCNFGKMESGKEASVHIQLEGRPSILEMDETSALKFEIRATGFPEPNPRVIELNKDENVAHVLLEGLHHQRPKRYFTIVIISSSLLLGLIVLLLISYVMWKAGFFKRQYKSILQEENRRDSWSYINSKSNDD

T1: CD37 (UniProt P11049)
T1 sequence: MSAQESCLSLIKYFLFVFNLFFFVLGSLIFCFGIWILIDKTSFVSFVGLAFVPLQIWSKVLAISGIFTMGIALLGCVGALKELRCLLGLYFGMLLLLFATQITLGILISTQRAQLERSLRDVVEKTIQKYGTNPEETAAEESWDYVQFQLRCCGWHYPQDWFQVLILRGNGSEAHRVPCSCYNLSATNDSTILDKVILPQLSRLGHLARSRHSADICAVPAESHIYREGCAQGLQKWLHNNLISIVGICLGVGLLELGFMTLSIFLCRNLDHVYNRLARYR

T2: CD37-FLAG (UniProt P11049)
T2 sequence: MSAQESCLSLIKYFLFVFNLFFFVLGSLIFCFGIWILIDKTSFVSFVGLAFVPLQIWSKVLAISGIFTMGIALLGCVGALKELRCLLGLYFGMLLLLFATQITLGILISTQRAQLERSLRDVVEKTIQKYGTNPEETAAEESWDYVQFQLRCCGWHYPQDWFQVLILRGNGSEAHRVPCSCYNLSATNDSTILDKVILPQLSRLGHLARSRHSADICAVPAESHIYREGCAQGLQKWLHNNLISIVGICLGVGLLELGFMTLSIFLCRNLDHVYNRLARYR


Columns and labels:
CD37 = target: T1, CD37; assay: co-IP; endogenous proteins; precipitated by anti-CD37 antibodies conjugated with protein A + G agarose; ITGA4 and ITGB7 verified in the immunoprecipitation samples
CD37-FLAG = target: T2, CD37-FLAG; assay: co-IP; exogenous CD37-FLAG, ITGA4-HIS and ITGB7-HIS from plasmids; which tag was precipitated is not stated

Row | Molecule | binding (CD37) | binding (CD37-FLAG)
1 | ITGA4 (from UniProt P13612 34-1032) | binds | –
2 | ITGA4-HIS (from UniProt P13612 34-1032) | – | binds
3 | integrin beta 7 (ITGB7) (protein, UniProt P26010 20-798) ELDAKIPSTGDATEWRNPHLSMLGSCQPAPSCQKCILSHPSCAWCKQLNFTASGEAEARRCARREELLARGCPLEELEEPRGQQEVLQDQPLSQGARGEGATQLAPQRVRVTLRPGEPQQLQVRFLRAEGYPVDLYYLMDLSYSMKDDLERVRQLGHALLVRLQEVTHSVRIGFGSFVDKTVLPFVSTVPSKLRHPCPTRLERCQSPFSFHHVLSLTGDAQAFEREVGRQSVSGNLDSPEGGFDAILQAALCQEQIGWRNVSRLLVFTSDDTFHTAGDGKLGGIFMPSDGHCHLDSNGLYSRSTEFDYPSVGQVAQALSAANIQPIFAVTSAALPVYQELSKLIPKSAVGELSEDSSNVVQLIMDAYNSLSSTVTLEHSSLPPGVHISYESQCEGPEKREGKAEDRGQCNHVRINQTVTFWVSLQATHCLPEPHLLRLRALGFSEELIVELHTLCDCNCSDTQPQAPHCSDGQGHLQCGVCSCAPGRLGRLCECSVAELSSPDLESGCRAPNGTGPLCSGKGHCQCGRCSCSGQSSGHLCECDDASCERHEGILCGGFGRCQCGVCHCHANRTGRACECSGDMDSCISPEGGLCSGHGRCKCNRCQCLDGYYGALCDQCPGCKTPCERHRDCAECGAFRTGPLATNCSTACAHTNVTLALAPILDDGWCKERTLDNQLFFFLVEDDARGTVVLRVRPQEKGADHTQAIVLGCVGGIVAVGLGLVLAYRLSVEIYDRREYSRFEKEQQQLNWKQDSNPLYKSAITTTINPRFQEADSPTL | binds | –
4 | ITGB7-HIS (protein, UniProt P26010 20-798) ELDAKIPSTGDATEWRNPHLSMLGSCQPAPSCQKCILSHPSCAWCKQLNFTASGEAEARRCARREELLARGCPLEELEEPRGQQEVLQDQPLSQGARGEGATQLAPQRVRVTLRPGEPQQLQVRFLRAEGYPVDLYYLMDLSYSMKDDLERVRQLGHALLVRLQEVTHSVRIGFGSFVDKTVLPFVSTVPSKLRHPCPTRLERCQSPFSFHHVLSLTGDAQAFEREVGRQSVSGNLDSPEGGFDAILQAALCQEQIGWRNVSRLLVFTSDDTFHTAGDGKLGGIFMPSDGHCHLDSNGLYSRSTEFDYPSVGQVAQALSAANIQPIFAVTSAALPVYQELSKLIPKSAVGELSEDSSNVVQLIMDAYNSLSSTVTLEHSSLPPGVHISYESQCEGPEKREGKAEDRGQCNHVRINQTVTFWVSLQATHCLPEPHLLRLRALGFSEELIVELHTLCDCNCSDTQPQAPHCSDGQGHLQCGVCSCAPGRLGRLCECSVAELSSPDLESGCRAPNGTGPLCSGKGHCQCGRCSCSGQSSGHLCECDDASCERHEGILCGGFGRCQCGVCHCHANRTGRACECSGDMDSCISPEGGLCSGHGRCKCNRCQCLDGYYGALCDQCPGCKTPCERHRDCAECGAFRTGPLATNCSTACAHTNVTLALAPILDDGWCKERTLDNQLFFFLVEDDARGTVVLRVRPQEKGADHTQAIVLGCVGGIVAVGLGLVLAYRLSVEIYDRREYSRFEKEQQQLNWKQDSNPLYKSAITTTINPRFQEADSPTL | – | binds
